Results published in the supplement of paper PMC12819154, “High-throughput peptide-centric local stability assay extends protein–ligand identification to membrane proteins, tissues and bacteria” (Nature Structural & Molecular Biology, 2025).
Some of the results follow. Most entries show no effect beyond the scatter of the controls.

Amino acid sequences for entries named in this document (tags omitted). A change or cut given only in a name is not applied to a line headed by its entry.
UniProt Q92995: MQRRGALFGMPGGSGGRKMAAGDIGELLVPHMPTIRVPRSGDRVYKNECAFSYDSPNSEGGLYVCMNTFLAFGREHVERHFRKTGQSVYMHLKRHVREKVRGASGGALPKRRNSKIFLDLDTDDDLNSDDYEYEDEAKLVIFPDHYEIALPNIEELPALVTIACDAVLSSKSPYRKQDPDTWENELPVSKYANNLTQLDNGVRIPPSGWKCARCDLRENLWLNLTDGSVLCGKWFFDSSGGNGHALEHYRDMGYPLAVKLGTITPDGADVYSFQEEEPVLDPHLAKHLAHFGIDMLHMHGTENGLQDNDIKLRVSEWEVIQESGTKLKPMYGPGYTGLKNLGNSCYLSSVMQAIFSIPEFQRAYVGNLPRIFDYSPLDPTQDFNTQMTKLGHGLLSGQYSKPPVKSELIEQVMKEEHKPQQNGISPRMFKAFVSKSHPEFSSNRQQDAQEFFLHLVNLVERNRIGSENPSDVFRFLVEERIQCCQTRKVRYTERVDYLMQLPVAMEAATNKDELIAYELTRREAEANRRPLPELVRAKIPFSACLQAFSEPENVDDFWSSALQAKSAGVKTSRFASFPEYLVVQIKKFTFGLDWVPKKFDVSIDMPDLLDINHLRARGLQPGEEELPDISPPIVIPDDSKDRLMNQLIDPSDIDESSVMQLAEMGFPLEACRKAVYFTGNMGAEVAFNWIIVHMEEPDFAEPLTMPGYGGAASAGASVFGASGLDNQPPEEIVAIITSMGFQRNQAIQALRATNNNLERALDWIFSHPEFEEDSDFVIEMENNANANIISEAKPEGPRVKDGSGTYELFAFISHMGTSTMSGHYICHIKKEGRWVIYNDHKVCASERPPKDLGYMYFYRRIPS
UniProt Q96AZ6: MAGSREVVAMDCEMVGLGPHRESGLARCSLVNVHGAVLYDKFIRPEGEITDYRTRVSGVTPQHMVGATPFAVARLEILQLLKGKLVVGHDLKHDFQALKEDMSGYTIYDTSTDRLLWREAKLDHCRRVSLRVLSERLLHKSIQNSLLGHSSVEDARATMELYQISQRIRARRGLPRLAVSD
UniProt Q96F05: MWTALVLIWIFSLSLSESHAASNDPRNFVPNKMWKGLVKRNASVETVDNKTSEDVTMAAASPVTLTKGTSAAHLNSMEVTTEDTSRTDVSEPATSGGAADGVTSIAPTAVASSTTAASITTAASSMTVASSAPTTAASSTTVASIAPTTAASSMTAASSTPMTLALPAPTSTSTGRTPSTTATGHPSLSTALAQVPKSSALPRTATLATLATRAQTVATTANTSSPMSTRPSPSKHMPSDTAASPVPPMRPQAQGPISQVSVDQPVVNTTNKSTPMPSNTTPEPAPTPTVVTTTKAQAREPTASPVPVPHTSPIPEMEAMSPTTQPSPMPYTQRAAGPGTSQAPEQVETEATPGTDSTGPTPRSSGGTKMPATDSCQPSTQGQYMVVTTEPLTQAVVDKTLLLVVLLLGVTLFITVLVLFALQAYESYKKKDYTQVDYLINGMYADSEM
UniProt Q92973: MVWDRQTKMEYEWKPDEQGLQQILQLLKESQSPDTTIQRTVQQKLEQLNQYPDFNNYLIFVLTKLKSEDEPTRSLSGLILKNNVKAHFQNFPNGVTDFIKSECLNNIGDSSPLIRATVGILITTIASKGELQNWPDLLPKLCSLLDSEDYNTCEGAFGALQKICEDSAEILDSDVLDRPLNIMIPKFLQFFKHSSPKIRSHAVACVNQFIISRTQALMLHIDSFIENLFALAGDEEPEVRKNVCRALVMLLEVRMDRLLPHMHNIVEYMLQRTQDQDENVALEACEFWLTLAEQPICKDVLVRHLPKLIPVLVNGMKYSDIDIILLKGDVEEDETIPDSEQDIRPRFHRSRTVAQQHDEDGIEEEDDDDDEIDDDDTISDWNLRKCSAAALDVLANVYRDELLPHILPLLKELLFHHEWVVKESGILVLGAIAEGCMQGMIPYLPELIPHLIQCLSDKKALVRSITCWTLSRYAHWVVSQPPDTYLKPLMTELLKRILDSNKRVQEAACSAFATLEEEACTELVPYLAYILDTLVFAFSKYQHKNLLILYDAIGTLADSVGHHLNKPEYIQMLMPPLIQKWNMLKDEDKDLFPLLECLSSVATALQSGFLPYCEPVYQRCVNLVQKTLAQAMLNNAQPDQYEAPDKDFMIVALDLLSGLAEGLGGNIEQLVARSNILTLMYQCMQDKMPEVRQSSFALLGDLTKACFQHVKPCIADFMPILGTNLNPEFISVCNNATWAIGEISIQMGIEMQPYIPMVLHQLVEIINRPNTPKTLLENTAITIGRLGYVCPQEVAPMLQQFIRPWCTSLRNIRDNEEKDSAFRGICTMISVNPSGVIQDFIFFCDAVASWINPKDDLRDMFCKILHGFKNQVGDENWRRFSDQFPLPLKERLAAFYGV
UniProt Q969V6: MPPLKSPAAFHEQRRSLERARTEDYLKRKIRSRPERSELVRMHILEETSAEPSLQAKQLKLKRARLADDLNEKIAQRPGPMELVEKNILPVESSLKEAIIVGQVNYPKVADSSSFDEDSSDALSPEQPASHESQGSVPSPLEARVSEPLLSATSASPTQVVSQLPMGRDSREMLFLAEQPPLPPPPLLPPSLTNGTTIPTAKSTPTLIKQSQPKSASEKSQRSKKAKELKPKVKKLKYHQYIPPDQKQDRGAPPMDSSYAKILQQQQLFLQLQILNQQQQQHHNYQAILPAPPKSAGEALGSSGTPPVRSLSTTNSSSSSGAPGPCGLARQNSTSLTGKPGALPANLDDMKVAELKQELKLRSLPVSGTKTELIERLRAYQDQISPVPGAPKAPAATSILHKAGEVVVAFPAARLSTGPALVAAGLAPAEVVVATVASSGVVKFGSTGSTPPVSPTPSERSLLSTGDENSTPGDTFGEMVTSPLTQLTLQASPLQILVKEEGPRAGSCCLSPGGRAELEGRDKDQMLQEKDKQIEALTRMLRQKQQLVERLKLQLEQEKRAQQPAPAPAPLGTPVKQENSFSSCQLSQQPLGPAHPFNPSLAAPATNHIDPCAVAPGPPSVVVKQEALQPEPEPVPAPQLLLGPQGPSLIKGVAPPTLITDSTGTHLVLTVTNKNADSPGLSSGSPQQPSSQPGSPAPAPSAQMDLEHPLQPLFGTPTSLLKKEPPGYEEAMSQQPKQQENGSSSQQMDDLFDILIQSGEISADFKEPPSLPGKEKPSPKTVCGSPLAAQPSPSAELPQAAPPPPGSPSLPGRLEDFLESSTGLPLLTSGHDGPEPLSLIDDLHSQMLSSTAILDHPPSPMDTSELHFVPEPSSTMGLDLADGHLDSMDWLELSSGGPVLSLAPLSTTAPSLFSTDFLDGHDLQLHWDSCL
UniProt Q96A57: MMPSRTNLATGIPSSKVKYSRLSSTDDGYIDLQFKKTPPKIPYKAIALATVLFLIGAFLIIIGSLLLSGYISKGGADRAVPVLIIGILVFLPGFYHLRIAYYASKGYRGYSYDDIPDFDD
UniProt Q93052: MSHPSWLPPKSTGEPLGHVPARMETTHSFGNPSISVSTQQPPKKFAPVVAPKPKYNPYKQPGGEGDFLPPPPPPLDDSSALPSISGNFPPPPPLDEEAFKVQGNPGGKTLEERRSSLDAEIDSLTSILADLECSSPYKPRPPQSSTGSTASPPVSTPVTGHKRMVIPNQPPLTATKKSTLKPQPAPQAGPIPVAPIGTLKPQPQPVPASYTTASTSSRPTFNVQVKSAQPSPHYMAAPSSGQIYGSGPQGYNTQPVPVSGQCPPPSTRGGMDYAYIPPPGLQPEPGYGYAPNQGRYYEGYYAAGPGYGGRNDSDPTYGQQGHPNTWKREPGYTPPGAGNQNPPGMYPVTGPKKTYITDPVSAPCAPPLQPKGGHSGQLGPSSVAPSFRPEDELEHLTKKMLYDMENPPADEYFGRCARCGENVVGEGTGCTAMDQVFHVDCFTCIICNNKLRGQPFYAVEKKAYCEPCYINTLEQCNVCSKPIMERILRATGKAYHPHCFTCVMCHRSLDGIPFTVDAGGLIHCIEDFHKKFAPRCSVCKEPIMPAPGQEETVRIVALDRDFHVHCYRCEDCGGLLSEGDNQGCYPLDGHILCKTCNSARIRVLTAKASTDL
UniProt Q969U7: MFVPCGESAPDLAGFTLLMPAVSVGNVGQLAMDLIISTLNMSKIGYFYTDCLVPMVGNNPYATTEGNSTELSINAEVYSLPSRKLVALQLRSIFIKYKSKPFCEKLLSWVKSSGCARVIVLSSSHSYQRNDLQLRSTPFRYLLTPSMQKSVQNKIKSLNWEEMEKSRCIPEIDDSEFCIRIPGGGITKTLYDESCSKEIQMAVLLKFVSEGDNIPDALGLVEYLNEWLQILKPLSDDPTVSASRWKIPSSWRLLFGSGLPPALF
UniProt Q92830, whole entry, looked up: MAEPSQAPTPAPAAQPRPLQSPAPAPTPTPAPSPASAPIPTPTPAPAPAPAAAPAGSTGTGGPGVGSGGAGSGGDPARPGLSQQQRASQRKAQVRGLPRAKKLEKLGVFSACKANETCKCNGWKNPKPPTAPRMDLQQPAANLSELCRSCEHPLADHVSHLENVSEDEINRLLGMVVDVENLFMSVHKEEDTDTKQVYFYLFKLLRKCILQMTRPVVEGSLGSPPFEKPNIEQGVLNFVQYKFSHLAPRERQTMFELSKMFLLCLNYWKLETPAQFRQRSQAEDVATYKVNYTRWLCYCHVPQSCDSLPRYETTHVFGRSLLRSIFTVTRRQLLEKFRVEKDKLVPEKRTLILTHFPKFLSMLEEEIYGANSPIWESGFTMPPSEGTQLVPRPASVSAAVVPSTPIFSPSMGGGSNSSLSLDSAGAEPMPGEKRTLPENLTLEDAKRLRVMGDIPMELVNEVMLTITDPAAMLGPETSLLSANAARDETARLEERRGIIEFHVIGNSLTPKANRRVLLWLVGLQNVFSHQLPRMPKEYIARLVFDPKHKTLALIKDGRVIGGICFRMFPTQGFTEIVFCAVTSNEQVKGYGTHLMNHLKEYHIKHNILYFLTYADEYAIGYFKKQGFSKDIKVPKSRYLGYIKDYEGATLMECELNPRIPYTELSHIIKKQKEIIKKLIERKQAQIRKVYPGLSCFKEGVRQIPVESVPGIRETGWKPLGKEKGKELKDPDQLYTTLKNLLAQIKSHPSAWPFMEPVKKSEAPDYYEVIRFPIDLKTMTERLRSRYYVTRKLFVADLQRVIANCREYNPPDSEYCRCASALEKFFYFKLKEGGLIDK
UniProt Q92797: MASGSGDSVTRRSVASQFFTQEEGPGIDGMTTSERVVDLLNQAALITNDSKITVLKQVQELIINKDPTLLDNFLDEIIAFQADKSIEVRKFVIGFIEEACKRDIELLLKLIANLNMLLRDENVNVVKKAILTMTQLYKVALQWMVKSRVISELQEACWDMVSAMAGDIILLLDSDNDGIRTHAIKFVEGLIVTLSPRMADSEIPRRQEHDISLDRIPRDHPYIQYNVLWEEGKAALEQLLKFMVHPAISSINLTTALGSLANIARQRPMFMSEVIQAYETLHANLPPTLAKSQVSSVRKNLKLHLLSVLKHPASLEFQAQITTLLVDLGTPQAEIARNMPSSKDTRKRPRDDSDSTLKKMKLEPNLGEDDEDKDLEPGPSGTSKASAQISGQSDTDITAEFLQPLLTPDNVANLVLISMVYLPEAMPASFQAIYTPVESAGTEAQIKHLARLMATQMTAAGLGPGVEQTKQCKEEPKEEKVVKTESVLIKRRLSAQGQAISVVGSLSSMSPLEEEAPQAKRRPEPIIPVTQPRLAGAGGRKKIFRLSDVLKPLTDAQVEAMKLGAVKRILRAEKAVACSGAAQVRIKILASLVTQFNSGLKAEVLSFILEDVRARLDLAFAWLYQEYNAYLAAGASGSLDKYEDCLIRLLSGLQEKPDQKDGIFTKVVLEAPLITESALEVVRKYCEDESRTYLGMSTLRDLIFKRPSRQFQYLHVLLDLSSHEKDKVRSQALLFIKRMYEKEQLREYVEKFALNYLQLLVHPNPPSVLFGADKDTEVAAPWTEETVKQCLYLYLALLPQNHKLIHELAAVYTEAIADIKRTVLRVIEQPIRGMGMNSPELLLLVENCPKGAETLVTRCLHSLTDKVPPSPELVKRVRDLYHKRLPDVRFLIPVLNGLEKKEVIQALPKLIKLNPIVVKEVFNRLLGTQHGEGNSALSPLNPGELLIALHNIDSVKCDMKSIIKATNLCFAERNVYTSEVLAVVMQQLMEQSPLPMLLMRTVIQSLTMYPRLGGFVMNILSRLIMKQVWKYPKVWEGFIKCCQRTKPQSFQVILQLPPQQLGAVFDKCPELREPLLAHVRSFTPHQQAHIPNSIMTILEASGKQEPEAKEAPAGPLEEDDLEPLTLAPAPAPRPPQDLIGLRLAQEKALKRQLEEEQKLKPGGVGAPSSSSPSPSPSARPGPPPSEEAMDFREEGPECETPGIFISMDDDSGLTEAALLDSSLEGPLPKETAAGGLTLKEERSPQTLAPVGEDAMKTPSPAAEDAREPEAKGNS
UniProt Q969H6: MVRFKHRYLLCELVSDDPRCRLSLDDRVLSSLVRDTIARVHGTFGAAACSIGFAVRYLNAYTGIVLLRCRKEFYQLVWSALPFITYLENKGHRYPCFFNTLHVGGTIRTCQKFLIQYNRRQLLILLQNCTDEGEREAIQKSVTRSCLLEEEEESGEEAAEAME

The targets below were run with Cc1nc(Nc2ncc(C(=O)Nc3c(C)cccc3Cl)s2)cc(N2CCN(CCO)CC2)n1 [dasatinib] (assay: log2 fold change of tryptic peptide abundance, ligand vs vehicle (limited proteolysis) (log2 ratio); higher = more trypsin-susceptible (destabilized)). Conditions: ligand concentration: 5 uM; sample: K562 cleared lysate.

Target | log2 fold change
UniProt Q96EU6 (peptide sequence: DREEDGGGLEPAAVAR, peptide start residue: 24) | -0.158
DPF1 (peptide sequence: LNILEDPR, peptide start residue: 84) (UniProt Q92782) | 0.245
USP13 (peptide sequence: KFTFGLDWVPK, peptide start residue: 575) (UniProt Q92995) | -0.182
GGH (peptide sequence: NLDGISHAPNAVK, peptide start residue: 254) (UniProt Q92820) | 0.225
ISG20 (peptide sequence: SIQNSLLGHSSVEDAR, peptide start residue: 141) (UniProt Q96AZ6) | 0.614
C11orf24 (peptide sequence: GTSAAHLNSMEVTTEDTSR, peptide start residue: 68) (UniProt Q96F05) | -0.218
ATP6V0A1 (peptide sequence: HLGTLNFGGIR, peptide start residue: 667) (UniProt Q93050) | -0.139
UniProt Q96EH3 (peptide sequence: HLHAMAFYVVK, peptide start residue: 134) | 0.0733
UniProt Q96EK7 (peptide sequence: QYEHDQWR, peptide start residue: 901) | -0.149
PHKB (peptide sequence: EAFNEFQKDQSR, peptide start residue: 1030) (UniProt Q93100) | -0.371
TNPO1 (peptide sequence: FLQFFKHSSPK, peptide start residue: 187) (UniProt Q92973) | 0.535
UniProt Q969V6 (peptide sequence: DKQIEALTR, peptide start residue: 531) | 0.36
UniProt Q96A57 (peptide sequence: TNLATGIPSSK, peptide start residue: 6) | -0.00854
LPP (peptide sequence: KFAPRCSVCK, peptide start residue: 531) (UniProt Q93052) | -0.0306
NACC2 (peptide sequence: NTLANSCGTGIR, peptide start residue: 410) (UniProt Q96BF6) | 0.106
UniProt Q92879 (peptide sequence: MFVGQVPR, peptide start residue: 18) | -0.148
PSMG2 (peptide sequence: TLYDESCSK, peptide start residue: 189) (UniProt Q969U7) | 0.156
UniProt Q92824 (peptide sequence: YDASNENK, peptide start residue: 238) | -0.231
ZKSCAN4 (peptide sequence: VEKEEASALTAEVR, peptide start residue: 27) (UniProt Q969J2) | -0.407
UniProt Q96D05 (peptide sequence: VRILANGEIVQDDDPR, peptide start residue: 2) | -0.144
KAT2A (peptide sequence: VYPGLSCFK, peptide start residue: 684) (UniProt Q92830) | -0.428
SYMPK (peptide sequence: CLHSLTDKVPPSPELVK, peptide start residue: 859) (UniProt Q92797) | -0.661
PYCR2 (peptide sequence: GFTAAGILSAHK, peptide start residue: 18) (UniProt Q96C36) | -0.0698
VPS33A (peptide sequence: VLDYYKR, peptide start residue: 424) (UniProt Q96AX1) | 0.171
UniProt Q96CS2 (peptide sequence: AKSEEFR, peptide start residue: 187) | -0.268
GTF3A (peptide sequence: HAVVHDPDKKK, peptide start residue: 297) (UniProt Q92664) | 0.38
GPKOW (peptide sequence: ELVIPLIQNGHR, peptide start residue: 68) (UniProt Q92917) | -0.0604
RMI2 (peptide sequence: GRPCLVPGK, peptide start residue: 92) (UniProt Q96E14) | 0.119
POP5 (peptide sequence: VHGTFGAAACSIGFAVR, peptide start residue: 40) (UniProt Q969H6) | -0.223

A few values from the list:
SYMPK (peptide sequence: CLHSLTDKVPPSPELVK, peptide start residue: 859) (UniProt Q92797) – log2 fold change: -0.661
ISG20 (peptide sequence: SIQNSLLGHSSVEDAR, peptide start residue: 141) (UniProt Q96AZ6) – log2 fold change: 0.614
